This is an account of results in patent publication US20090221476A1 (UNIVERSITE D ANGERS, published 2009).

Amino acid sequences for entries named in this document (tags omitted). Residues count along the entry.
UniProt P08551, 2-543 limits assumed, chain 1 of 3: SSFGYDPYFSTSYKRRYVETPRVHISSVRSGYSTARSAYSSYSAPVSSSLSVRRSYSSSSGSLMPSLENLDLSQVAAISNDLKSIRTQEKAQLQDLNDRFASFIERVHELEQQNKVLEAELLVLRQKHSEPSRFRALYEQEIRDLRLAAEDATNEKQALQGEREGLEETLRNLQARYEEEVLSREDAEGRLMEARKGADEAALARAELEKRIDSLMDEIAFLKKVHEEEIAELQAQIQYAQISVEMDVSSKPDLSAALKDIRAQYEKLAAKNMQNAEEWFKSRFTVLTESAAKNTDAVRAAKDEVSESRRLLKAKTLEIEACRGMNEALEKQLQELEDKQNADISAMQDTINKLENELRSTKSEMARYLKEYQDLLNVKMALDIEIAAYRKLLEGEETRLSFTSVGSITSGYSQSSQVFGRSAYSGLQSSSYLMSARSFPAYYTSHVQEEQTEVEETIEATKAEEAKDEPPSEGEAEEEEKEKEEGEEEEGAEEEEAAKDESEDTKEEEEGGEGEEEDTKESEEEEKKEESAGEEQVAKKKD
neurofilaments (assembled, purified from mouse brain and spinal cord at 4 C), UniProt P08553, 2-848 limits assumed, chain 2 of 3: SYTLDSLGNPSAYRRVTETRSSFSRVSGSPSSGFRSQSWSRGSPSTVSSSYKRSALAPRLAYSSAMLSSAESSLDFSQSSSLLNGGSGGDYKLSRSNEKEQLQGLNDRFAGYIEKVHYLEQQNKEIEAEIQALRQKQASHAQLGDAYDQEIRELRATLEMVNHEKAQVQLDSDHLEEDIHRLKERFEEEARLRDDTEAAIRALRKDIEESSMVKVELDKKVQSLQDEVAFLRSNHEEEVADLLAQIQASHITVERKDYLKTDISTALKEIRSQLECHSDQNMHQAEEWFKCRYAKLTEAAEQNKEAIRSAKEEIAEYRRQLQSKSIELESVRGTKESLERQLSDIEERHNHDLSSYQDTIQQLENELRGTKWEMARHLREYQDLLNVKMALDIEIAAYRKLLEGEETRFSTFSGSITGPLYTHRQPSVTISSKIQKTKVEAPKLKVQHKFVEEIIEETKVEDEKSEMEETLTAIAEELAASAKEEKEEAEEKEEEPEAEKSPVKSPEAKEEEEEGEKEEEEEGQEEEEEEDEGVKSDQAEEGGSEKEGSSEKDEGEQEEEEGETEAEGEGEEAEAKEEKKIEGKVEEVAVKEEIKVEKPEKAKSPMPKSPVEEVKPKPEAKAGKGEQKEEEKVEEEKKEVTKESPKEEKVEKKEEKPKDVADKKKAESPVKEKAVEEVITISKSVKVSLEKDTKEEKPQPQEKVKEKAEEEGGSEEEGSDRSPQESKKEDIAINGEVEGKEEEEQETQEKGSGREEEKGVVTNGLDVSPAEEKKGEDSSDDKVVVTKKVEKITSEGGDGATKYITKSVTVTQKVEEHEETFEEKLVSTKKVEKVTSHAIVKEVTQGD
neurofilaments (assembled, purified from mouse brain and spinal cord at 4 C), UniProt P19246, whole entry, chain 3 of 3: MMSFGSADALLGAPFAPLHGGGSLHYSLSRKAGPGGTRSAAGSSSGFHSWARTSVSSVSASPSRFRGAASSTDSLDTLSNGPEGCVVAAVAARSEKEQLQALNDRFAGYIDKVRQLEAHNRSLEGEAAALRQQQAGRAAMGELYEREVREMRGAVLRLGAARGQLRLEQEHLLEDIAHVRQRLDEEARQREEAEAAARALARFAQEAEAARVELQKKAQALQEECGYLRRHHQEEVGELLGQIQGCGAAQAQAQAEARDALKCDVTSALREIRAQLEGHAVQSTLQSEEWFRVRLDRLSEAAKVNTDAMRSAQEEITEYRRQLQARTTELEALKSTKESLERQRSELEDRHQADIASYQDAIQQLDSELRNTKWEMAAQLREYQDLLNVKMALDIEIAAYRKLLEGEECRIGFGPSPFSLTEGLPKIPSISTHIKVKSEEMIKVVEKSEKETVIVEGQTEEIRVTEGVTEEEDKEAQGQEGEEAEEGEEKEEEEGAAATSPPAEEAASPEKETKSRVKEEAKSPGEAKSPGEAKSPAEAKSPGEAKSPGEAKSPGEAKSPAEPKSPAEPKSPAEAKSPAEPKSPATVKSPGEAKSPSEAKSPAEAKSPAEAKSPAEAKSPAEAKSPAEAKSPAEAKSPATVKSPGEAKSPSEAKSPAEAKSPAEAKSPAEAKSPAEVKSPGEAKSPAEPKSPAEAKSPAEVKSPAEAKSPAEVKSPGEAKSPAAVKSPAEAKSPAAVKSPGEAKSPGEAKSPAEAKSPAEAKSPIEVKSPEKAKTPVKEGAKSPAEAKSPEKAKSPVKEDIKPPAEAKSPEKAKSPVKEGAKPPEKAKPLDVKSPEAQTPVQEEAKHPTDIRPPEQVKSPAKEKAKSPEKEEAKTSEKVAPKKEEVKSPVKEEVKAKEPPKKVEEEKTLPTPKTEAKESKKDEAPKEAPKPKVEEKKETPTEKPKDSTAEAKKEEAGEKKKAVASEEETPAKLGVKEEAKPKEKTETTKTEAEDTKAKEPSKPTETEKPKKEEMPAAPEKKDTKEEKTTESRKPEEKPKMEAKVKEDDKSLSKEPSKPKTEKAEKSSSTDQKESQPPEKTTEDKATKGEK

The target in this assay is T1, neurofilaments (assembled, purified from mouse brain and spinal cord at 4 C) (mouse, UniProt P08551 2-543; P08553 2-848; P19246 1-1090).
T1 construct: Native filament preparation (fractions P2/P3); also called NF; NFs
Nature of the assay: co-purification; co-aggregation in NFHLacZ neurons.

B1: synapsin II (other, mouse, UniProt Q64332 1-586, looked up)
chain: MMNFLRRRLSDSSFIANLPNGYMTDLQRPEPQQPPPAPGPGAATASAATSAASPGPERRPPPAQAPAPQPAPQPAPTPSVGSSFFSSLSQAVKQTAASAGLVDAPAPSAASRKAKVLLVVDEPHTDWAKCFRGKKILGDYDIKVEQAEFSELNLVAHADGTYAVDMQVLRNGTKVVRSFRPDFVLIRQHAFGMAENEDFRHLVIGMQYAGLPSINSLESIYNFCDKPWVFAQMVAIFKTLGGEKFPLIEQTYYPNHREMLTLPTFPVVVKIGHAHSGMGKVKVENHYDFQDIASVVALTQTYATAEPFIDAKYDIRVQKIGNNYKAYMRTSISGNWKTNTGSAMLEQIAMSDRYKLWVDACSEMFGGLDICAVKAVHGKDGKDYIFEVMDCSMPLIGEHQVEDRQLITDLVISKMNQLLSRTPALSPQRPLTTQQPQSGTLKEPDSSKTPPQRPPPQGGPGQPQGMQPPGKVLPPRRLPSGPSLPSSSSSSSSSSSSSSAPQRPGGPTTTHGDASSSSNSLAEAQAPQAAPAQKPQPHPQLNKSQSLTNAFSFSESSFFRSSANEDEAKAETIRSLRKSFASLFSD
notes: Printed together with synapsin I as 'synapsin I and II'
In the case of B1, the binding result is “no binding”.
